Laboratory results reported in article PMC10825207.

The chains behind the UniProt entries cited, without tags or fusion partners.
UniProt O14965: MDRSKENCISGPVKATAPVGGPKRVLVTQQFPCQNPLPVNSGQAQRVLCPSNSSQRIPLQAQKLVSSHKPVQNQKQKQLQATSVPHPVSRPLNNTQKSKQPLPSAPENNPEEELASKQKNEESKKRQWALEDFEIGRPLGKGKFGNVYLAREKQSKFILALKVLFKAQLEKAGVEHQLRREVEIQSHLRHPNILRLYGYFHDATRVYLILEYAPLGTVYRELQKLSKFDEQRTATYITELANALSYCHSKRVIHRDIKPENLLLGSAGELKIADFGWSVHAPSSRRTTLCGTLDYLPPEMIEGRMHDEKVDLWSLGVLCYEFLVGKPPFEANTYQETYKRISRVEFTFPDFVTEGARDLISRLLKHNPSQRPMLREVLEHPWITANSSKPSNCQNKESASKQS
UniProt P06748: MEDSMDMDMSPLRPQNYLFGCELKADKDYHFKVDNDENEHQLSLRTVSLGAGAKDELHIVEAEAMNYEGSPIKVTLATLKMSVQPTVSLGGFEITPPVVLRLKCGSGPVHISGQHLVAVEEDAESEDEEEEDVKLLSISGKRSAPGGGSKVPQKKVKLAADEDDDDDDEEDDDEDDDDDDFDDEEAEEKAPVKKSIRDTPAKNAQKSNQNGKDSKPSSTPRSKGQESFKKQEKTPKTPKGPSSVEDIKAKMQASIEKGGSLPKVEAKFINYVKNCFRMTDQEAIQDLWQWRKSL

Target: Aurora kinase A (AURKA) (human (endogenous in A673 and other ES cell lines)) (UniProt O14965)
Test: affinity purification with mass spectrometry; A673 lysate precipitated with anti-AURKA antibody; SDS-PAGE, silver staining, differing bands (35-40 kDa) cut for mass spectrometry; IgG as negative control

With “nucleophosmin1 (NPM1) (from UniProt P06748 1-294)” the binding was “binds”.

No constants are given. Whether binding was seen depends on the method and setting. In cells and extracts the contact can be indirect. A yes stands for co-enrichment or nearness to the bait. Other partners may have been found.
